Some results were stated once for a whole list of compounds, not compound by compound.
System: S. pneumoniae T14 capsule polysaccharide
Format: cell-based, Streptococcus pneumoniae serotype 14
Settings: screen, azido sugar 1 mM, production medium + Galactose (30 g/L)
Description: FIGS. 1A-1D. Screen for azido sugar incorporation into S. pneumoniae T14 capsule polysaccharide. […] Bacteria were grown until the ΔOD600≥0 for >30 minutes, then lysed with 0.1% NLS for 30 minutes. Growth was measured offline using a spectrophotometer blanked with PBS at 600 nm. (FIG. 1A) azido incorporation into polysaccharide was then quantified via fluorescent labeling (FL) with normalization to refractive index (RI). MaxOD and End Of Fermentation time (EOF) are provided in (FIG. 1B) and (FIG. 1C), respectively. Polysaccharide was extracted using EtOH and CaCl2 and analyzed via SEC-RI for (FIG. 1D) polysaccharide titer. n=1-4, error bars=+/−StDev.
A SEC fluorescence and Refractive index assay (SEC-FL/RI) was used for azide measurement to confirm the incorporation of azide modification.
Click-It Cell Reaction Buffer kit and Alexa Fluor 488 Alkyne were purchased from Invitrogen.
The initial procedure when running the SEC-FL/RI was to prepare the sample to a target concentration of 0.01 mg/m by mixing a pre-diluted polysaccharide to the final target concentration with the Click Reaction mixture. […] The RI detector (RID) allowed for detection of the polysaccharide while the Fluorescence Detector (FLD) was used to determine the level of fluor incorporated into the polysaccharide sample. […]

| SMILES | FL/RI (incorporated into T14 capsule at detectable levels) |
| --- | --- |
| [N-]=[N+]=N[C@@H](C=O)[C@@H](O)[C@H](O)[C@H](O)CO [2AzGlc, 2-Azido-2-deoxy-D-glucose] | above 1.0 |
| [N-]=[N+]=N[C@H]1[C@H](O)[C@@H](CO)OC(O)[C@@H]1O (stereo partly drawn) [3AzGlc, 3-azido-3-deoxy-D-glucopyranose] | above 1.0 |
